Values from PubChem BioAssay AID1159578 (Peter MacCallum Cancer Centre, 2015).
This is one part, drawn at random, of about 18,000 reagents tested. About 1,030 of all reagents (5.7%) count as active. 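Inactive calls also include pools with fewer than 3300 nuclei, whose migration was not assessed.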 The raw values are shown without normalisation. Not all columns of the deposit are shown.

Screen: 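Knock-downs that alter how fast lymphatic endothelial cells migrate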 (primary screen)
Cells: human lymphatic endothelial cells
Knock-down reagent: siRNA pool against human genes, 40 nM
Time to read-out: 48 h after transfection
Measurement: 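High-content imaging of dye-stained cells in a scratch assay measures filled wound area and nuclei per well; duplicate means given as ratio to mock and robust z-score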
Scale: migration robust z-score: higher = faster migration into the scratch; nuclei per well: higher = more cells in the well
Call rule: 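Pools averaging fewer than 3300 nuclei are never called; remaining pools count as changed when migration robust z lies outside -2 to 2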
Meaning of the calls: active = migration changed; inactive = no migration change, or too few cells

| target gene | migration robust z-score | nuclei per well, duplicate mean | call |
| --- | --- | --- | --- |
| TLE5 (TLE family member 5, transcriptional modulator) | 0.02 | 6190 | inactive |
| ASB1 (ankyrin repeat and SOCS box containing 1) | -0.62 | 5724 | inactive |
| SLC12A5 | 0.93 | 5650 | inactive |
| MLIP (muscular LMNA interacting protein) | -0.52 | 4704 | inactive |
| ANKK1 (ankyrin repeat and kinase domain containing 1) | -0.88 | 5475 | inactive |
| ENPEP (glutamyl aminopeptidase) | 0.91 | 5750 | inactive |
| RPL3L (ribosomal protein L3 like) | -0.52 | 5129 | inactive |
| ZIC2 (Zic family zinc finger 2) | 0.24 | 6362 | inactive |
| RHBDD1 (rhomboid domain containing 1) | -0.39 | 5992 | inactive |
| RALGAPA1 (Ral GTPase activating protein catalytic subunit alpha 1) | 0.04 | 4949 | inactive |
| ZNRF2 (zinc and ring finger 2) | 1.43 | 5216 | inactive |
| AEBP2 (AE binding protein 2) | 1.26 | 6436 | inactive |
| NUSAP1 (nucleolar and spindle associated protein 1) | -0.02 | 5898 | inactive |
| ELAC1 (elaC ribonuclease Z 1) | 1.45 | 6066 | inactive |
| UGT2B4 (UDP glucuronosyltransferase family 2 member B4) | -0.24 | 6072 | inactive |
| AZIN2 (antizyme inhibitor 2) | 0.5 | 6224 | inactive |
| APOBEC1 (apolipoprotein B mRNA editing enzyme catalytic subunit 1) | -1.12 | 4480 | inactive |
| DSN1 (DSN1 component of MIS12 kinetochore complex) | 0.01 | 4544 | inactive |
| SELL (selectin L) | -0.94 | 5832 | inactive |
| PGGT1B (protein geranylgeranyltransferase type I subunit beta) | -0.08 | 5656 | inactive |
| TUBB (tubulin beta class I) | 0.8 | 4857 | inactive |
| NOL9 (nucleolar protein 9) | 0.3 | 6971 | inactive |
| TP53I13 (tumor protein p53 inducible protein 13) | -0.38 | 5537 | inactive |
| CD1D (CD1d molecule) | -1.15 | 5990 | inactive |
| GREM2 (gremlin 2, DAN family BMP antagonist) | 0.03 | 4604 | inactive |
| TM4SF5 (transmembrane 4 L six family member 5) | 0 | 6936 | inactive |
| MRPL49 (mitochondrial ribosomal protein L49) | 0.04 | 5774 | inactive |
| PAGE2B (PAGE family member 2B) | 0.86 | 5697 | inactive |
| PSMB6 (proteasome 20S subunit beta 6) | -0.36 | 3934 | inactive |
| EFS (embryonal Fyn-associated substrate) | -1.73 | 5510 | inactive |
| GNS (glucosamine (N-acetyl)-6-sulfatase) | -0.24 | 5682 | inactive |
| LILRA3 (leukocyte immunoglobulin like receptor A3) | 0.8 | 7070 | inactive |
| SLC25A53 | -0.12 | 5304 | inactive |
| MIB2 (MIB E3 ubiquitin protein ligase 2) | 1.66 | 5508 | inactive |
| IL3 (interleukin 3) | -1.63 | 4424 | inactive |
| CPNE4 (copine 4) | -0.98 | 4988 | inactive |
| KRT75 (keratin 75) | 0.49 | 4679 | inactive |
| SON (SON DNA and RNA binding protein) | -2.19 | 4094 | active |
| LCP2 (lymphocyte cytosolic protein 2) | 1.04 | 6037 | inactive |

Individual results from above:
For “nuclei per well, duplicate mean”, RPL3L (ribosomal protein L3 like) shows 5129
For “migration robust z-score”, PSMB6 (proteasome 20S subunit beta 6) reads -0.36
Entry of ASB1 (ankyrin repeat and SOCS box containing 1) under “nuclei per well, duplicate mean”: 5724
TM4SF5 (transmembrane 4 L six family member 5), call: inactive
For “call”, RHBDD1 (rhomboid domain containing 1) is entered as inactive
